Assay results reported in the supplement of paper PMC8728848.
This is one part of the list.

Key:
Assay in all cases: glycan array binding signal (z-score within array); higher = stronger binding
Conditions in all cases: glycan notation: IUPAC condensed, linker removed
[1] = target: Gal(b1-4)GlcNAc(b1-3)Gal(b1-4)GlcNAc(b1-2)[Gal(b1-4)GlcNAc(b1-3)Gal(b1-4)GlcNAc(b1-6)]Man(a1-6)[Gal(b1-4)GlcNAc(b1-3)Gal(b1-4)GlcNAc(b1-2)Man(a1-3)]Man(b1-4)GlcNAc(b1-4)GlcNAc
Summary of the method: (§1)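 The Consortium for Functional Glycomics database supplied 3228 glycan arrays, of which those lacking an available protein sequence were dropped. The binding signal, a within-array Z-score, was averaged across arrays of the same protein sequence and across linkers. Negative scores can be read as non-binding.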

[2] = target: Gal(b1-4)GlcNAc(b1-3)Gal(b1-4)GlcNAc(b1-2)[Gal(b1-4)GlcNAc(b1-3)Gal(b1-4)GlcNAc(b1-6)]Man(a1-6)[Gal(b1-4)GlcNAc(b1-3)Gal(b1-4)GlcNAc(b1-2)Man(a1-3)]Man(b1-4)GlcNAc(b1-4)[Fuc(a1-6)]GlcNAc
Summary of the method: as §1

[3] = target: Gal(b1-4)GlcNAc(b1-3)Gal(b1-4)GlcNAc(b1-3)Gal(b1-4)GlcNAc
Summary of the method: as §1

[4] = target: Gal(b1-4)GlcNAc(b1-3)Gal(b1-4)GlcNAc(b1-3)Gal(b1-4)GlcNAc(b1-2)Man(a1-3)[Gal(b1-4)GlcNAc(b1-3)Gal(b1-4)GlcNAc(b1-3)Gal(b1-4)GlcNAc(b1-2)Man(a1-6)]Man(b1-4)GlcNAc(b1-4)GlcNAc
Summary of the method: as §1

[5] = target: Gal(b1-4)GlcNAc(b1-3)Gal(b1-4)GlcNAc(b1-3)Gal(b1-4)GlcNAc(b1-2)Man(a1-3)[Gal(b1-4)GlcNAc(b1-3)Gal(b1-4)GlcNAc(b1-3)Gal(b1-4)GlcNAc(b1-2)Man(a1-6)]Man(b1-4)GlcNAc(b1-4)[Fuc(a1-6)]GlcNAc
Summary of the method: as §1

[6] = target: Gal(b1-4)GlcNAc(b1-3)Gal(b1-4)GlcNAc(b1-3)Gal(b1-4)GlcNAc(b1-2)[Gal(b1-4)GlcNAc(b1-3)Gal(b1-4)GlcNAc(b1-3)Gal(b1-4)GlcNAc(b1-6)]Man(a1-6)[Gal(b1-4)GlcNAc(b1-3)Gal(b1-4)GlcNAc(b1-3)Gal(b1-4)GlcNAc(b1-2)Man(a1-3)]Man(b1-4)GlcNAc(b1-4)[Fuc(a1-6)]GlcNAc
Summary of the method: as §1

[7] = target: Gal(b1-4)GlcNAc(b1-3)Gal(b1-4)GlcNAc(b1-3)Gal(b1-4)GlcNAc(b1-3)Gal(b1-4)GlcNAc(b1-2)Man(a1-3)[Gal(b1-4)GlcNAc(b1-3)Gal(b1-4)GlcNAc(b1-3)Gal(b1-4)GlcNAc(b1-3)Gal(b1-4)GlcNAc(b1-2)Man(a1-6)]Man(b1-4)GlcNAc(b1-4)GlcNAc
Summary of the method: as §1

[8] = target: Gal(b1-4)GlcNAc(b1-3)Gal(b1-4)GlcNAc(b1-3)Gal(b1-4)GlcNAc(b1-3)Gal(b1-4)GlcNAc(b1-2)Man(a1-3)[Gal(b1-4)GlcNAc(b1-3)Gal(b1-4)GlcNAc(b1-3)Gal(b1-4)GlcNAc(b1-3)Gal(b1-4)GlcNAc(b1-2)Man(a1-6)]Man(b1-4)GlcNAc(b1-4)[Fuc(a1-6)]GlcNAc
Summary of the method: as §1

[9] = target: Gal(b1-4)GlcNAc(b1-3)Gal(b1-4)GlcNAc(b1-3)Gal(b1-4)GlcNAc(b1-3)Gal(b1-4)GlcNAc(b1-2)[Gal(b1-4)GlcNAc(b1-3)Gal(b1-4)GlcNAc(b1-3)Gal(b1-4)GlcNAc(b1-3)Gal(b1-4)GlcNAc(b1-6)]Man(a1-6)[Gal(b1-4)GlcNAc(b1-3)Gal(b1-4)GlcNAc(b1-3)Gal(b1-4)GlcNAc(b1-3)Gal(b1-4)GlcNAc(b1-2)Man(a1-3)]Man(b1-4)GlcNAc(b1-4)[Fuc(a1-6)]GlcNAc
Summary of the method: as §1

[10] = target: Gal(b1-4)GlcNAc(b1-3)Gal(b1-4)GlcNAc(b1-3)Gal(b1-4)GlcNAc(b1-3)Gal(b1-4)GlcNAc(b1-3)Gal(b1-4)GlcNAc(b1-2)Man(a1-3)[Gal(b1-4)GlcNAc(b1-3)Gal(b1-4)GlcNAc(b1-3)Gal(b1-4)GlcNAc(b1-3)Gal(b1-4)GlcNAc(b1-3)Gal(b1-4)GlcNAc(b1-2)Man(a1-6)]Man(b1-4)GlcNAc(b1-4)GlcNAc
Summary of the method: as §1

[11] = target: Gal(b1-4)GlcNAc(b1-3)Gal(b1-4)GlcNAc(b1-3)Gal(b1-4)GlcNAc(b1-3)Gal(b1-4)GlcNAc(b1-3)Gal(b1-4)GlcNAc(b1-2)Man(a1-3)[Gal(b1-4)GlcNAc(b1-3)Gal(b1-4)GlcNAc(b1-3)Gal(b1-4)GlcNAc(b1-3)Gal(b1-4)GlcNAc(b1-3)Gal(b1-4)GlcNAc(b1-2)Man(a1-6)]Man(b1-4)GlcNAc(b1-4)[Fuc(a1-6)]GlcNAc
Summary of the method: as §1

[12] = target: Gal(b1-4)GlcNAc(b1-3)Gal(b1-4)GlcNAc(b1-3)Gal(b1-4)GlcNAc(b1-3)Gal(b1-4)GlcNAc(b1-3)Gal(b1-4)GlcNAc(b1-2)[Gal(b1-4)GlcNAc(b1-3)Gal(b1-4)GlcNAc(b1-3)Gal(b1-4)GlcNAc(b1-3)Gal(b1-4)GlcNAc(b1-3)Gal(b1-4)GlcNAc(b1-6)]Man(a1-6)[Gal(b1-4)GlcNAc(b1-3)Gal(b1-4)GlcNAc(b1-3)Gal(b1-4)GlcNAc(b1-3)Gal(b1-4)GlcNAc(b1-3)Gal(b1-4)GlcNAc(b1-2)Man(a1-3)]Man(b1-4)GlcNAc(b1-4)[Fuc(a1-6)]GlcNAc
Summary of the method: as §1

[13] = target: Gal(b1-4)GlcNAc(b1-3)Gal(b1-4)GlcNAc(b1-3)Gal(b1-4)GlcNAc(b1-3)Gal(b1-4)GlcNAc(b1-3)Gal(b1-4)GlcNAc(b1-3)Gal(b1-4)GlcNAc(b1-2)Man(a1-3)[Gal(b1-4)GlcNAc(b1-3)Gal(b1-4)GlcNAc(b1-3)Gal(b1-4)GlcNAc(b1-3)Gal(b1-4)GlcNAc(b1-3)Gal(b1-4)GlcNAc(b1-3)Gal(b1-4)GlcNAc(b1-2)Man(a1-6)]Man(b1-4)GlcNAc(b1-4)GlcNAc
Summary of the method: as §1

[14] = target: Gal(b1-4)GlcNAc(b1-3)Gal(b1-4)GlcNAc(b1-3)GalNAc
Summary of the method: as §1

[15] = target: Gal(b1-4)GlcNAc(b1-3)Gal(b1-4)GlcNAc(b1-3)[Gal(b1-4)GlcNAc(b1-3)Gal(b1-4)GlcNAc(b1-6)]GalNAc
Summary of the method: as §1

[16] = target: Gal(b1-4)GlcNAc(b1-3)Gal(b1-4)GlcNAc(b1-6)[Gal(b1-3)]GalNAc
Summary of the method: as §1

[17] = target: Gal(b1-4)GlcNAc(b1-3)Gal(b1-4)[Fuc(a1-3)]GlcNAc(b1-3)Gal(b1-4)[Fuc(a1-3)]GlcNAc
Summary of the method: as §1

[18] = target: Gal(b1-4)GlcNAc(b1-3)GalNAc
Summary of the method: as §1

[19] = target: Gal(b1-4)GlcNAc(b1-3)[Fuc(a1-3)GlcNAc(b1-6)]Gal(b1-4)Glc
Summary of the method: as §1

[20] = target: Gal(b1-4)GlcNAc(b1-3)[Gal(b1-4)GlcNAc(b1-6)]Gal(b1-4)GlcNAc
Summary of the method: as §1

[21] = target: Gal(b1-4)GlcNAc(b1-3)[GlcNAc(b1-6)]Gal(b1-4)GlcNAc
Summary of the method: as §1

[22] = target: Gal(b1-4)GlcNAc(b1-6)Gal(b1-4)GlcNAc
Summary of the method: as §1

B1: YghJ (Escherichia coli), E3PJ90 (protein)
chain: MNKKFKYKKSLLAAILSATLLAGCDGGGSGSSSDTPPVDSGTGSLPEVKPDPTPNPEPTPEPTPDPEPTPEPIPDPEPTPEPEPEPVPTKTGYLTLGGSQRVTGATCNGESSDGFTFKPGEDVTCVAGNTTIATFNTQSEAARSLRAVEKVSFSLEDAQELAGSDDKKSNAVSLVTSSNSCPANTEQVCLTFSSVIESKRFDSLYKQIDLAPEEFKKLVNEEVENNAATDKAPSTHTSPVVPVTTPGTKPDLNASFVSANAEQFYQYQPTEIILSEGRLVDSQGYGVAGVNYYTNSGRGVTGENGEFSFSWGEAISFGIDTFELGSVRGNKSTIALTELGDEVRGANIDQLIHRYSTTGQNNTRVVPDDVRKVFAEYPNVINEIINLSLSNGATLGEGEQVVNLPNEFIEQFNTGQAKEIDTAICAKTDGCNEARWFSLTTRNVNDGQIQGVINKLWGVDTNYKSVSKFHVFHDSTNFYGSTGNARGQAVVNISNAAFPILMARNDKNYWLAFGEKRAWDKNELAYITEAPSIVRPENVTRETASFNLPFISLGQVGDGKLMVIGNPHYNSILRCPNGYSWNGGVNKDGQCTLNSDPDDMKNFMENVLRYLSNDRWLPDAKSSMTVGTNLETVYFKKHGQVLGNSAPFAFHKDFTGITVKPMTSYGNLNPDEVPLLILNGFEYVTQWGSDPYSIPLRADTSKPKLTQQDVTDLIAYMNKGGSVLIMENVMSNLKEESASGFVRLLDAAGLSMALNKSVVNNDPQGYPDRVRQRRSTPIWVYERYPAVDGKPPYTIDDTTKEVIWKYQQENKPDDKPKLEVASWQEEVEGKQVTQFAFIDEADHKTPESLAAAKQRILDAFPGLEVCKDSDYHYEVNCLEYRPGTDVPVTGGMYVPQYTQLDLSADTAKAMLQAADLGTNIQRLYQHELYFRTNGRQGERLNSVDLERLYQNMSVWLWNETKYRYEEGKEDELGFKTFTEFLNCYTNNAYVGTQCSAELKKSLIDNKMIYGEESSKAGMMNPSYPLNYMEKPLTRLMLGRSWWDLNIKVDVEKYPGVVNTNGETVTQNINLYSAPTKWFAGNMQSTGLWAPAQQEVSIESKSTVPVTVTVALADDLTGREKHEVSLNRPPRVTKTYDLKANDKVTFKVPYGGLIYIKGDSKEVQSADFTFTGVVKAPFYKDGKWQHDLNSPAPLGELESASFVYTTPKKNLNASNYTGGLEQFANDLDTFASSMNDFYGRDSEDGKHRMFTYKNLPGHKHRFANDVQISIGDAHSGYPVMNSSFSPNSTTLPTTPLNDWLIWHEVGHNAAETPLTVPGATEVANNVLALYMQDRYLGKMNRVADDITVAPEYLEESNGQAWARGGAGDRLLMYAQLKEWAEKNFDIKKWYPDGTPLPEFYSEREGMKGWNLFQLMHRKARGDEVSNDKFGGKNYCAESNGNAADTLMLCASWVAQTDLSEFFKKWNPGANAYQLPGASEMSFEGGVSQSAYNTLASLDLPKPEQGPETINQVTEHKMSAE
Q: Which “glycan array binding signal (z-score)” value [1] does the source give for B1 here?
A: The value was 0.654.

Q: And the “glycan array binding signal (z-score)” value [2]?
A: Its value is 0.923.

Q: What about the “glycan array binding signal (z-score)” value [3] of the same binder?
A: Its value is -1.22.

Q: What about the “glycan array binding signal (z-score)” value [4] of the same binder?
A: The value was 0.559.

Q: What about the “glycan array binding signal (z-score)” value [5] of the same binder?
A: The value was 2.23.

Q: What about the “glycan array binding signal (z-score)” value [6] of the same binder?
A: The value was 1.68.

Q: And the “glycan array binding signal (z-score)” value [7]?
A: The value was -0.172.

Q: And the “glycan array binding signal (z-score)” value [8]?
A: The value was 2.84.

Q: What about the “glycan array binding signal (z-score)” value [9] of the same binder?
A: The value was 1.8.

Q: What about the “glycan array binding signal (z-score)” value [10] of the same binder?
A: Its value is -0.29.

Q: And the “glycan array binding signal (z-score)” value [11]?
A: Its value is -0.13.

Q: And the “glycan array binding signal (z-score)” value [12]?
A: The value was 0.415.

Q: And the “glycan array binding signal (z-score)” value [13]?
A: Its value is 0.215.

Q: What about the “glycan array binding signal (z-score)” value [14] of the same binder?
A: The value was 0.193.

Q: What about the “glycan array binding signal (z-score)” value [15] of the same binder?
A: Its value is 0.488.

Q: And the “glycan array binding signal (z-score)” value [16]?
A: The value was -0.193.

Q: What about the “glycan array binding signal (z-score)” value [17] of the same binder?
A: The value was -1.28.

Q: What about the “glycan array binding signal (z-score)” value [18] of the same binder?
A: The value was -0.511.

Q: And the “glycan array binding signal (z-score)” value [19]?
A: Its value is -0.481.

Q: What about the “glycan array binding signal (z-score)” value [20] of the same binder?
A: The value was 0.12.

Q: What about the “glycan array binding signal (z-score)” value [21] of the same binder?
A: The value was -0.471.

Q: What about the “glycan array binding signal (z-score)” value [22] of the same binder?
A: The value was -0.433.
